Source: article PMC6953203

Molecular target: RLL1 (Red Lettuce Leaves 1), bHLH transcription factor (lettuce (Lactuca sativa))
Assay: two-hybrid; Matchmaker Gold Yeast Two-Hybrid system (Clontech), yeast strain AH109; bHLH ORF in pGBKT7, MYB genes in pGADT7; growth on SD/-Leu/-Trp/-His/-Ade with X-α-Gal, 3–5 days at 28 °C

In the case of “RLL3 (Red Lettuce Leaves 3), R3-MYB transcription factor (from UniProt A0A5C0C9V1)”, the binding is reported as “binds”.

These are yes or no findings as the source states them, for the method shown. Binding can be weak; no strength is given.
